Measurements taken from article PMC11704194.
These are yes or no findings as the source states them, for the method shown. Binding seen in cells or lysates may run through a third protein. A yes stands for co-enrichment or nearness to the bait. Other partners may have been found.

Target: T1, ANO1 (human) (UniProt Q5XXA6)
T1 sequence: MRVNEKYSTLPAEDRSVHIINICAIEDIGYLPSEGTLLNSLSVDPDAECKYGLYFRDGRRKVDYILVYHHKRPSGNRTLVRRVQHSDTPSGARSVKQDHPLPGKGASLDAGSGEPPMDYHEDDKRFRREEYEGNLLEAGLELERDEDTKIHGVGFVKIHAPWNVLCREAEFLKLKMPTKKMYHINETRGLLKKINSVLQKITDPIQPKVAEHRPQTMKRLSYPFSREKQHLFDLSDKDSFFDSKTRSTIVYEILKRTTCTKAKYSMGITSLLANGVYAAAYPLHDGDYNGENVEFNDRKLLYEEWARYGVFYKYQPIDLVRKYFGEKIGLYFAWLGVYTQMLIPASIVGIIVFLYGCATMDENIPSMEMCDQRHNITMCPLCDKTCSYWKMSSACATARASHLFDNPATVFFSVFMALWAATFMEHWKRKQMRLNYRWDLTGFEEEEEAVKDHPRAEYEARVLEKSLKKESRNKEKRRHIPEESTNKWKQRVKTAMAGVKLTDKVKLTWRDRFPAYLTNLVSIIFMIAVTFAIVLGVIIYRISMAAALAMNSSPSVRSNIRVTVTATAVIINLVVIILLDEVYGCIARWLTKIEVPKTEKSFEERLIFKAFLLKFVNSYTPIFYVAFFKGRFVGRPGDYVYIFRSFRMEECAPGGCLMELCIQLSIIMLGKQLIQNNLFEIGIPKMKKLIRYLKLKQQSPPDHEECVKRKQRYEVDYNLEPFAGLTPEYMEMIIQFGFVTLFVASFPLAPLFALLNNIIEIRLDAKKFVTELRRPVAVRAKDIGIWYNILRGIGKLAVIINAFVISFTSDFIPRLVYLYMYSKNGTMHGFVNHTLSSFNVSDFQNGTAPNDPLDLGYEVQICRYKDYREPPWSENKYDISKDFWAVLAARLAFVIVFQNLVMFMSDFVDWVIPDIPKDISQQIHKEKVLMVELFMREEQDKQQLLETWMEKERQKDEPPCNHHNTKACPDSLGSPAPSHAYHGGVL
Experiment: affinity purification with mass spectrometry; IP-MS: 2 mg lysate of SNU-478-ANO1-OE and SNU-478-vector cells in 0.5% NETN buffer (0.5% Nonidet P-40, 50 mM Tris-HCl pH 7.4, 150 mM NaCl, 1 mM EDTA); anti-ANO1/TMEM16A polyclonal antibody overnight at 4 °C, Protein A magnetic beads, on-bead tryptic digestion, MS

B1: PRKCI (protein, UniProt P41743 1-596)
chain: MPTQRDSSTMSHTVAGGGSGDHSHQVRVKAYYRGDIMITHFEPSISFEGLCNEVRDMCSFDNEQLFTMKWIDEEGDPCTVSSQLELEEAFRLYELNKDSELLIHVFPCVPERPGMPCPGEDKSIYRRGARRWRKLYCANGHTFQAKRFNRRAHCAICTDRIWGLGRQGYKCINCKLLVHKKCHKLVTIECGRHSLPQEPVMPMDQSSMHSDHAQTVIPYNPSSHESLDQVGEEKEAMNTRESGKASSSLGLQDFDLLRVIGRGSYAKVLLVRLKKTDRIYAMKVVKKELVNDDEDIDWVQTEKHVFEQASNHPFLVGLHSCFQTESRLFFVIEYVNGGDLMFHMQRQRKLPEEHARFYSAEISLALNYLHERGIIYRDLKLDNVLLDSEGHIKLTDYGMCKEGLRPGDTTSTFCGTPNYIAPEILRGEDYGFSVDWWALGVLMFEMMAGRSPFDIVGSSDNPDQNTEDYLFQVILEKQIRIPRSLSVKAASVLKSFLNKDPKERLGCHPQTGFADIQGHPFFRNVDWDMMEQKQVVPPFKPNISGEFGLDNFDSQFTNEPVQLTPDDDDIVRKIDQSEFEGFEYINPLLMSAEECV
  binding: binds
